The whole screen tested about 330,000 compounds, of which about 20 (0.006%) were called active. The shares of active, inactive and inconclusive entries below differ from those in the screen. Calls come from the whole dose curve; as a rule, active = well fitted inhibition curve with a large enough effect; inconclusive = small, poorly fitted or top-dose-only effect, or effect the other way; inactive = flat fitted curve, though single readings scatter. Potencies beside an inconclusive call are fits to weak or partial responses and may not hold up.
The molecules below were run against Protein phosphatase EYA2 (Homo sapiens) (UniProt O00167) (assay: qHTS Assay for Inhibitors of the Phosphatase Activity of Eya2). Details: recombinant Eya2, OMFP fluorescence dephosphorylation (OMFP is methylfluorescein phosphate); activity, negative = inhibition: at 76.9 µM (top of the series) unless noted.
How it was run: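 Eya2 (0.2 uM) preincubated 10 min at ambient with compound, then OMFP substrate added at 50 uM; 10 min reaction in 50 mM HEPES pH 7.5, 50 mM NaCl, 5 uM MgCl2, 0.05% BSA, 1 mM DTT. Fluorescence read at Ex 485/Em 525 nm.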
% is set by controls: 0 for no effect and ±100 for the full control effect; potency is the fitted concentration of half-maximal effect.

Protein sequences, listed by entry. Tags and fused reporters are not part of them. Lines headed by an entry give the natural chain unless they say otherwise; changes in a name come on top.
UniProt O00167: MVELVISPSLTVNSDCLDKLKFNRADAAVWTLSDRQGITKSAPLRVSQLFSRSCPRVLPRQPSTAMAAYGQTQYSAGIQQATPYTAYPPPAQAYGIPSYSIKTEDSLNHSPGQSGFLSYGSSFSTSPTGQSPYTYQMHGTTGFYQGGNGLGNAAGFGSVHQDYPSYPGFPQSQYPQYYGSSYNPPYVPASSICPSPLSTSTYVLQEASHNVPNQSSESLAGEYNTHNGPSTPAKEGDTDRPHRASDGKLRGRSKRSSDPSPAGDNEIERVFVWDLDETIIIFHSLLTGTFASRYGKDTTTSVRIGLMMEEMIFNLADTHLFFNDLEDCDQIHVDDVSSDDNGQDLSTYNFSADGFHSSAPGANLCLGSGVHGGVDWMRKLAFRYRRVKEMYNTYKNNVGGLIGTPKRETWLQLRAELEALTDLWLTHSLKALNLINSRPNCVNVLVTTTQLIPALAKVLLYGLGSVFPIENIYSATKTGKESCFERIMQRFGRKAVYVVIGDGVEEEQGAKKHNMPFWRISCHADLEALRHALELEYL

Row | SMILES | activity, negative = inhibition | Potency
1 | CC1(C)CC(C(N)=S)CCO1 (configuration not stated) | inactive: 9.98% | –
2 | Cc1sc2nc(SCc3ccc(C(=O)O)cc3)n(Cc3ccco3)c(=O)c2c1C | – | inconclusive: 22.4 µM [inhibitor, single point]
3 | Cc1ccc(NC(=O)CN(C)C(=O)c2cccc(Br)c2)cc1 | – | inconclusive: 100 µM [inhibitor, single point]
4 | CC(C)C[C@H](NC(=O)c1nc[nH]c1C(=O)NC1CCN(C(=O)OC(C)(C)C)CC1)C(=O)OC(C)(C)C | – | inconclusive: 282 µM [inhibitor, partial curve]
5 | CCS(=O)(=O)N1CCN(S(=O)(=O)c2ccc3ccccc3c2)CC1 | – | inconclusive: 15.8 µM [inhibitor, single point]
6 | O=C(COC(=O)c1ccccc1Nc1cccc(C(F)(F)F)c1)NCc1ccco1 | – | inconclusive: 17.8 µM [inhibitor, partial curve]
7 | CN(C(=O)COC(=O)c1ccc([N+](=O)[O-])cc1)c1ccccc1 | – | inconclusive: 70.8 µM [inhibitor, partial curve, poor fit]
8 | COc1ccc(C(=O)N2CCN(Cc3ccc(OC)c(OC)c3)CC2)cc1 | – | inconclusive: 22.4 µM [inhibitor, single point]
9 | COc1ccc(S(=O)(=O)N2CCC(C(=O)NCc3cccnc3)CC2)cc1C | – | inconclusive: 1260 µM [inhibitor, partial curve]
10 | CC(=O)N(C)c1ccc(NC(=S)Nc2cccc3ccccc23)cc1 | inactive: -2.42% | –
11 | Cc1cc2c(cc1C)/C(=C\C(N)=O)NC(C)(C)C2 | – | inconclusive: 70.8 µM [inhibitor, single point]
12 | O=C1NCCCC1C(=O)N/N=C/c1ccc([N+](=O)[O-])cc1 (configuration not stated) | – | inconclusive: 20 µM [inhibitor, single point]
13 | O=c1c(O[C@@H]2O[C@H](CO)[C@H](O)[C@H](O)[C@H]2O)c(-c2ccc(O)c(O)c2)oc2cc(O)cc(O)c12 | inactive: 0.961% | –
14 | Cc1ccc(NC(=O)C2CCCN2c2nn3c(=O)cc(C)nc3s2)cc1 (configuration not stated) | – | inconclusive: 22.4 µM [inhibitor, single point]
15 | COc1cc(C2CC(=O)Oc3c(C(CCN4CCOCC4)c4ccc(N(C)C)cc4)c(OC)cc(OC)c32)cc(OC)c1OC (configuration not stated) | inactive: -6.95% | –
16 | O=C1NC(=S)N/C1=C\c1cccnc1 | – | inconclusive: 89.1 µM [inhibitor, single point]
17 | CCCCOc1cccc(C(=O)NC(=S)Nc2ccc(Cl)c(C(=O)O)c2)c1 | – | inconclusive: 89.1 µM [inhibitor, single point]
18 | Cc1c(Cl)cccc1NC(=S)N(CCN(C)C)C(C)c1ccco1 (configuration not stated) | – | inconclusive: 28.2 µM [inhibitor, partial curve, poor fit]
19 | N/C(=N\c1nc2c(c(=O)[nH]1)CCC2)Nc1cccc2ccccc12 | – | inconclusive: 25.1 µM [inhibitor, single point]
20 | CCOCC(=O)Nc1ccc(S(=O)(=O)N2CCOCC2)cc1 | – | inconclusive: 79.4 µM [inhibitor, single point]
21 | COc1ccc(OCC(O)CNS(=O)(=O)c2ccc(NC(C)=O)cc2)cc1 (configuration not stated) | – | inconclusive: 22.4 µM [inhibitor, single point]

Record cards (already shown):
`CC1(C)CC(C(N)=S)CCO1` (configuration not stated) as listed: activity, negative = inhibition: inactive: 9.98%
`CCS(=O)(=O)N1CCN(S(=O)(=O)c2ccc3ccccc3c2)CC1` as listed: Potency: inconclusive: 15.8 µM [inhibitor, single point]

Further structures:

Row | SMILES | activity, negative = inhibition | Potency
22 | C[C@H](CO)N1C[C@H](C)[C@@H](CN(C)C(=O)NC2CCCCC2)Oc2ccc(NS(=O)(=O)c3cn(C)cn3)cc2C1=O | – | inconclusive: 100 µM [inhibitor, partial curve]
23 | O=C(c1cc(-c2cccs2)on1)N1CCN(C(c2ccccc2)c2ccccc2)CC1 | – | inconclusive: 56.2 µM [inhibitor, single point]
24 | O=C(Cc1csc(Nc2nc(=S)[nH]c3ccccc23)n1)NCCCN1CCN(c2ccccc2F)CC1 | – | inconclusive: 100 µM [inhibitor, single point]
25 | COc1ccc2oc(=O)c(C(=O)OCc3ccccc3)cc2c1 | – | inconclusive: 100 µM [inhibitor, single point]
26 | CCCn1c(N)c(N(CCOC)C(=O)c2ccc(-c3ccccc3)cc2)c(=O)[nH]c1=O | – | inconclusive: 100 µM [inhibitor, partial curve]
27 | Cc1ccc(OCc2cc(C(=O)N(C)Cc3cnc4ccccn34)no2)cc1C | – | inconclusive: 89.1 µM [inhibitor, single point]
28 | COc1ccc(Nc2nnc(C)c3ccccc23)cc1 | – | inconclusive: 15.8 µM [inhibitor, single point]
29 | COc1cc2c(cc1OC)CN(C(=O)/C=C/c1cccs1)CC2 | inactive: 7.67% | –
30 | O=C(NC1CCCC1)C(c1cccs1)N(C(=O)c1ccno1)c1ccccc1 (configuration not stated) | inconclusive: -45.7% [inhibitor] | –
31 | Cn1c(SCC(=O)NC2CCCC2)nnc1-c1ccco1 | – | inconclusive: 126 µM [inhibitor, single point]
32 | CC(C)Cc1nnc(NC(=O)c2cc3c(s2)CCC3)s1 | – | inconclusive: 17.8 µM [inhibitor, partial curve, poor fit]
33 | OCCN(CCO)c1nc(N2CCCCC2)c2nc(N(CCO)CCO)nc(N3CCCCC3)c2n1 | inconclusive: 69.6% [activator] | inconclusive: 126 µM [activator, single point]
34 | Cc1ccc(-n2cc(CNCCCn3cccn3)c(-c3cccc(C)c3)n2)cc1 | inactive: 14.2% | –
35 | Cc1cccc(-c2nc(C)cc(=O)[nH]2)c1 | – | inconclusive: 112 µM [inhibitor, single point]
36 | COc1cccc(/C=C2\SC(N3CCC(C)CC3)=NC2=O)c1OC | – | inconclusive: 100 µM [inhibitor, single point]
37 | CCOc1cc(/C=N/O)cc(Cl)c1OC | – | inconclusive: 22.4 µM [inhibitor, single point]
38 | COCc1nnc(NC(=O)c2ccccc2Oc2ccccc2)s1 | – | inconclusive: 25.1 µM [inhibitor, single point]
39 | CCn1c(SCC(=O)Nc2cc(C)ccc2C)nc2c(c1=O)SC(C)C2 (configuration not stated) | inactive: -27.6% | –
40 | COc1ccc(N2CCN(CCNC(=O)c3ccc4nc5ccccc5c(=O)n4c3)CC2)cc1 | – | inconclusive: 79.4 µM [inhibitor, single point]
41 | COc1ccccc1NC(=O)N1CCOCC1 | – | inconclusive: 22.4 µM [inhibitor, single point]

From PubChem BioAssay AID488837 (National Center for Advancing Translational Sciences (NCATS), 2010)
